This is an account of results in publication PMC12040169 (PLOS Biology, 2025).

Structures are written as SMILES. The list shows a part of the results.

The experiment has as its system T1, CTL2-GFP (C. trachomatis L2/434/Bu, GFP-expressing).
T1 construct: L2/434/Bu, GFP-expressing
Also noted: species or system HeLa; Intracellular C. trachomatis growth in HeLa cells, bulk GFP fluorescence relative to DMSO. As to conditions: bulk GFP, single well; 28.5 h, 10 µM; inhibitor.
As to `CC12CCCC(=O)N1C(CO)C(c1ccccc1)O2` (stereo not drawn) [CBK011013], the “% of control remaining” value is 147.038%. For `Cc1ccc(Cl)c(OC(C)C(=O)N2CCOC(CC(=O)O)C2)c1` (stereo not drawn) [CBK304769] the value was 113.155%. For `CCOC(=O)C1(Cc2ccc(F)cc2F)CCCN(C(C)=O)C1` (stereo not drawn) [CBK307516] the value was 118.072%; for `CCCC(N)CCCCCC(=O)O` (stereo not drawn) [CBK217078], 108.145%. On to `Cn1c(Cc2cccs2)nnc1SCC(=O)c1c[nH]c2ccccc12` [CBK268534], for which the “% of control remaining” value is reported as 128.646%. For `COc1ccc(CCNC(=O)c2cnc3scc(C)n3c2=O)cc1` [CBK287291] the value was 93.6599%. With `CCCc1c(C(=O)N2CCN(c3ncccn3)CC2)cnn1-c1cc(Cl)cc(Cl)c1` [CBK107383], the “% of control remaining” value is reported as 97.0004%. In the case of `COc1ccc(S(=O)(=O)NC(=O)NCC2CC3C=CC2C3)cc1` (stereo not drawn) [CBK022821], the “% of control remaining” value is given as 116.595%. For `Cc1nc2ccc(NC(=S)N3CCN(c4ccccn4)CC3)cc2nc1C` [CBK267227] the value was 144.228%. As to `OC(CN1CCOCC1)Cn1c(-c2ccccc2)c(-c2ccccc2)c2ccc3ccccc3c21` (stereo not drawn) [CBK263996G], the “% of control remaining” value stood at 40.5425%. With `Cc1nnsc1C(=O)N1CCN(c2cc(C(F)(F)F)ccn2)CC1` [CBK008467], the “% of control remaining” value is on record as 141.341%.

As for `CCOc1ccccc1C(=O)N1CCC(Cc2cccc(-c3cccs3)c2)(C(N)=O)CC1` [CBK285914], the “% of control remaining” value came to 113.949%.

Take `Cc1ccc(C(Cc2ccsc2)NS(=O)(=O)c2ccc3[nH]c(=O)[nH]c(=O)c3c2)nc1` (stereo not drawn) [CBK286354]: the “% of control remaining” value is 121.549%. The same measure for `CC(C)C(=O)N1CC(C)N(CCCC(c2ccc(F)cc2)c2ccc(F)cc2)CC1C` (stereo not drawn) [CBK024961C]: 120.031%; for `CC(=O)c1ccc(NC(=O)O[C@@H]2CO[C@H]3[C@@H]2OC[C@@H]3NC(=O)C2CCC2)cc1` [CBK289475]: 118.111%. On to `Cc1ccc(C(C)C(=O)N2CCC(O)(Cn3ccnc3C)CC2)cc1` (stereo not drawn) [CBK284660], for which the “% of control remaining” value is reported as 131.744%. Consider `O=C(CC1Sc2ccccc2NC1=O)Nc1ccc([N+](=O)[O-])c(F)c1` (stereo not drawn) [CBK264717], for which the “% of control remaining” value worked out at 100%.

In the case of `CC(C)C(=O)N1CCC(OCc2ccc(-c3ccc(C(=O)N(C)C)cc3)cc2S(C)(=O)=O)CC1` [CBK155921], the “% of control remaining” value came to 94.2059%.

Take `CN1CCN(CCC(=O)N2CCN(c3ncccn3)CC2)CC1` [CBK144520]: the “% of control remaining” value was 75.5755%. As to `CN1CCC(NC(=O)c2cc3ccccc3[nH]2)CC1` [CBK168633], the “% of control remaining” value worked out at 109.497%. The same measure for `COc1ccc(CNC(=O)c2cc(S(=O)(=O)N(C)C)ccc2OC)cc1` [CBK307586]: 151.77%. For the compound `Cc1nnc(CS(=O)(=O)Cc2csc(C(C)C)n2)n1C1CC1` [CBK304106], the “% of control remaining” value is 102.796%. For `COCCNc1cc(-c2ccc(C(C)=O)s2)ncn1` [CBK090791], the “% of control remaining” value was 164.916%.

As to `Cn1cnc([N+](=O)[O-])c1Sc1cccs1` [CBK002620], the “% of control remaining” value amounted to 52.1063%. For `CCCCN(Cc1ccccc1)C(=O)[C@H]1CCCC[C@H]1C(=O)O` [CBK286596] the value was 125.219%; for `Cn1ncc(Nc2ccccc2)c1C(=O)O` [CBK013004], 84.4186%; for `Cc1nn(-c2ccc(F)cc2)c(C)c1C(=O)NCc1ccnc(N2CCCC2)c1` [CBK296700], 115.661%.

With `COC(=O)CCC(=O)Nc1snnc1-c1ccc(Cl)cc1` [CBK153241], the “% of control remaining” value came out at 113.033%. The same measure for `CC(C)(C)OC(=O)N1Cc2c(-c3noc(C4CC4)n3)ncn2-c2ccc(Cl)cc21` [CBK007792]: 108.938%. In the case of `CC(=O)Nc1nnn(CCOc2nonc2C)n1` [CBK027320], the “% of control remaining” value is given as 151.529%. Regarding `c1cc(N2CCN(CCN3CCCC3)CC2)ncc1-c1ccc2c(c1)OCO2` [CBK037769], the “% of control remaining” value worked out at 124.995%. For the compound `CCc1cn(C[C@H](NC(=O)C2CCC2)C(=O)O)c(=O)[nH]c1=O` [CBK289663], the “% of control remaining” value worked out at 155.114%. In the case of `CCNC(=O)N1CC2(CCN(CCSC)CC2)c2ccccc21` [CBK126709], the “% of control remaining” value turned out to be 93.8674%. The same measure for `COCC(=O)N(C)C(CO)c1cc(OC)ccc1Br` (stereo not drawn) [CBK304780]: 134.88%; for `O=C(c1nc2ccccc2[nH]1)N1CCc2ccccc2C1` [CBK200341]: 82.0422%. In the case of `c1ccc(C(CCN2CCc3ccccc3C2)c2ccccc2)cc1` [CBK126404], the “% of control remaining” value came to 107.769%. On to `O=C(CN1CCC(NC(=O)c2cccs2)CC1)Nc1cc(F)ccc1F` [CBK305997], for which the “% of control remaining” value turned out to be 90.4195%.

In the case of `C=C(C)Cn1c(Cc2ccccc2)nnc1SCC(C)C` [CBK200082], the “% of control remaining” value came to 105.545%. Take `CSCCC(=O)Nc1cccc2[nH]ccc12` [CBK159655]: the “% of control remaining” value was found to be 110.088%. As to `Clc1ccc2c(c1)NC(c1ccco1)N1CCN=C21` (stereo not drawn) [CBK284479], the “% of control remaining” value is reported as 133.83%. For `COc1cc(NS(=O)(=O)c2cc(C(=O)O)c(Cl)cc2Cl)cc(OC)c1` [CBK113162], the “% of control remaining” value is recorded as 113.049%. Consider `c1ccc(CSc2nnc3ccc(-c4ccncc4)nn23)cc1` [CBK287681], for which the “% of control remaining” value amounted to 106.534%.

With `CCc1nc2ccc(C(=O)N3CCN(C(C)=O)CC3)cn2c1N(C)Cc1ccc(Cl)cc1` [CBK146718], the “% of control remaining” value is on record as 106.666%.

On to `OCCc1ccc(Nc2cc(-c3ccc4c(c3)OCO4)ncn2)cc1` [CBK090767], for which the “% of control remaining” value came to 118.141%. For the compound `CCNC(=S)N[C@H]1CC[C@@]2(Cc3ccccc3Cl)CCN(C)[C@H]2C1` [CBK003708], the “% of control remaining” value is on record as 116.438%. For the compound `O=C(O)c1ccc(NC(=O)c2cccc(-n3cnnc3)c2)cc1` [CBK270134], the “% of control remaining” value is 116.037%. On to `CCn1nc(C)c(-c2cncn2CCCC(C)(C)CO)c1C` [CBK281807], for which the “% of control remaining” value turned out to be 110.845%.

Turning to `c1ccc(C(Oc2nccnc2-c2ccsc2)c2ccccc2)cc1` [CBK106765], the “% of control remaining” value was 145.514%. The same measure for `CC(C)CC(=O)N1CCN(Cc2nc3sc4c(c3c(=O)[nH]2)CCC4)CC1` [CBK305014]: 117.748%; for `Cn1c(=O)[nH]c(=O)c2cnc(-c3ccc(Cl)cc3)nc21` [CBK291208]: 94.8186%. For `COc1cc(NC(=O)c2nn3c(c2Br)NC(c2cccs2)CC3C(F)(F)F)c(OC)cc1Cl` (stereo not drawn) [CBK263573] the value was 100%. Regarding `CSc1[nH]nc(-c2ccc(C(C)(C)C)cc2)c1C#N` [CBK016999], the “% of control remaining” value came to 96.6255%. Consider `CC(=O)N1CCc2nc(C)nc(NCCn3cccc3)c2CC1` [CBK307130], for which the “% of control remaining” value came to 128.689%. `COc1ccc(/C=C2\SC(Nc3ccc(Cl)c(C(=O)O)c3)=NC2=O)cc1C` [CBK067743]: the “% of control remaining” value is listed as 108.177%. Regarding `O=C(Cc1ccccc1)N1CCN(S(=O)(=O)N2CCOCC2)CC1` [CBK268857], the “% of control remaining” value is 145.951%.

In the case of `COc1ccc(NC(=O)c2c[nH]c3nc(C)ccc3c2=O)cc1` [CBK287816], the “% of control remaining” value came to 141.608%. Consider `CS(=O)(=O)NC1CCCN(c2nc(-c3ccsc3)nc3ccccc23)C1` (stereo not drawn) [CBK305623], for which the “% of control remaining” value is 142.76%. As to `CCOC(=O)c1c(NC(=O)CN2CC(C)OC(C)C2)sc2c1CCC(C)C2` (stereo not drawn) [CBK264572], the “% of control remaining” value is 109.634%.

For `Cc1c(C(=O)NCC[S+](C)[O-])oc2c(C)cccc12` (stereo not drawn) [CBK282511], the “% of control remaining” value amounted to 118.789%.

On to `COc1ccc(C(=O)COC(=O)c2cccc(N3C(=O)C4C5C=C(C)C(C5)C4C3=O)c2)cc1` (stereo not drawn) [CBK264808], for which the “% of control remaining” value is reported as 129.852%. For `Cc1cc(=O)oc2cc(NC(=S)NNC(=O)C(C)Oc3ccc4c(c3)CCC4)ccc12` (stereo not drawn) [CBK267031], the “% of control remaining” value stood at 195.669%. Turning to `CN(CCc1ccccn1)C(=O)C1CN(C(=O)C2CC23CCC3)C1` (stereo not drawn) [CBK281969], the “% of control remaining” value worked out at 112.854%. As to `Cc1ccc(C(=O)O)cc1NC(=O)CSc1nc2scc(C3CC3)c2c(=O)n1-c1ccccc1` [CBK297481], the “% of control remaining” value is reported as 115.943%. As for `COC(=O)CC1CCC(NC(=O)C(F)(F)F)CC1` (stereo not drawn) [CBK009129], the “% of control remaining” value was 135.661%. For `CSc1nnc(CCCNc2cccc(C#N)n2)n1CC(C)C` [CBK306449], the “% of control remaining” value is 132.123%. For the compound `Cc1ccc(C2CCCN2C(=O)Cn2cc(C(=O)NCc3ccccc3)ccc2=O)cc1C` (stereo not drawn) [CBK286051], the “% of control remaining” value is 115.581%.

With `CCOC(=O)C1=C(c2ccccc2)Nc2ncnn2C1c1cccc(OC)c1OC` (stereo not drawn) [CBK266353], the “% of control remaining” value is on record as 150.309%. For `NS(=O)(=O)c1ccc(CNC2CC(=O)N(CCc3ccccc3)C2=O)cc1` (stereo not drawn) [CBK262464], the “% of control remaining” value is 118.391%. Consider `O=C(Cc1nc2ccccc2[nH]1)N1CCOCC1` [CBK019505], for which the “% of control remaining” value is reported as 107.447%. Take `O=C(c1ccc(Cl)cc1)N1CCN(C(=O)c2cc(O)nc3ccccc23)CC1` [CBK296666]: the “% of control remaining” value is reported as 113.766%. With `Cc1c(F)cccc1CN1CCCN(S(=O)(=O)c2ccc(-c3ccccc3)cc2)CC1` [CBK062977], the “% of control remaining” value is given as 92.3034%. Consider `COc1ccc(NC(=O)c2ccc(N3CCN(Cc4ccccc4)CC3)c([N+](=O)[O-])c2)cc1` [CBK263260], for which the “% of control remaining” value stood at 96.5218%. For the compound `Cc1ccc(OCc2nnc(SCc3cccc(C#N)c3)n2Cc2ccccc2)cc1C` [CBK266065], the “% of control remaining” value was determined as 141.549%. The same measure for `CN(C(=O)c1cccnc1)C(CC1CCCCC1)C1CCCCC1` (stereo not drawn) [CBK015849]: 90.2071%; for `Cc1ccc(C(=O)NNCc2ccccc2)c(NCc2cccnc2)n1` [CBK076369]: 109.321%; for `CN(Cc1ccc(Br)cc1)C(=O)CNS(=O)(=O)c1cnn(C)c1` [CBK304553]: 131.372%. For `CC(OC(=O)Cc1ccccc1[N+](=O)[O-])c1nnnn1-c1ccccc1` (stereo not drawn) [CBK297920] the value was 122.935%; for `O=[N+]([O-])c1ccc(N2CCN(Cc3c(O)ccc4ccccc34)CC2)cc1NCc1ccccc1` [CBK268408], 88.1895%.
